# Laboratory results from publication PMC12040169 (PLOS Biology, 2025).
# This is one part of the list.
# Test system: T1, CTL2-GFP (C. trachomatis L2/434/Bu, GFP-expressing)
# T1 construct: L2/434/Bu, GFP-expressing
# Parameters: species or system HeLa; Intracellular C. trachomatis growth in HeLa cells, bulk GFP fluorescence relative to DMSO
# Conditions: bulk GFP, single well; 28.5 h, 10 µM; inhibitor
row,Structure (SMILES),% of control remaining
1,COc1cc2oc(=O)c(CC(=O)N[C@@H](CC(C)C)C(=O)O)c(C)c2cc1Cl [CBK286772],89.8752%
2,CC1(C)CC(=O)C=C(NCC2CCNCC2)C1 [CBK027580],100%
3,COc1ccc(C2(O)CCN(CC(O)c3ccc(C(C)(C)C)cc3)CC2)cc1 (centres unmarked) [CBK286333],127.65%
4,CCOC(=O)c1[nH]c2ccccc2c1NC(=O)c1cc(F)cc(Cl)c1 [CBK160143],103.538%
5,Cc1cc2nc(NS(C)(=O)=O)n(S(C)(=O)=O)c2cc1C [CBK023112],91.1251%
6,COc1ccc(C(=O)C2CCN(Cc3cccc4cccnc34)CC2)cc1 [CBK295192],116.359%
7,CC(C)c1nc(CC(=O)NCCC(=O)N2CCCc3ccccc32)cs1 [CBK305437],77.8384%
8,C(=N\Nc1nc2ccccc2[nH]1)/c1cccnc1 [CBK026357],89.3129%
9,CN1CN=C2SC3(COC(c4cccc(Br)c4)OC3)C(=O)N2C1 (centres unmarked) [CBK263700],133.226%
10,Cc1ccc(OCCSc2nnc(N)[nH]2)cc1 [CBK269334],166.128%
11,CCCn1cnnc1C(C)NS(=O)(=O)c1cccc(C(=O)N2CCC2)c1 (centres unmarked) [CBK306569],134.368%
12,c1cnc(N2CCN(Cc3ccc4c(c3)OCO4)CC2)c(OCCN2CCOCC2)n1 [CBK082894T],106.02%
13,CC(C)(C)C1=CC2=NC3(CCCCCCC3)[C@@H]3C[C@@H](O)[C@@H](O)[C@@H]3N2O1 [CBK303256],102.799%
14,Cc1ccc(OCCOCCN(C)C)c(Cl)c1 [CBK265493G],111.726%
15,CC(C)(C)c1csc(NC(=O)C2CC(=O)N(c3cccc(C(F)(F)F)c3)C2)n1 (centres unmarked) [CBK175545],94.7677%
16,Cc1ccccc1CN1CC[C@H]2[C@@H](C1)[C@H](c1ccsc1)CN2C(=O)c1ccc(F)cc1 [CBK285638],132.119%
17,Cc1ccc(C(=O)N2CCC[C@@H]3NC(=O)c4ccccc4OCC/C=C/C[C@@H]32)c(O)n1 [CBK292080],125.87%
18,COCCN1CCC2(C/C=C/C[C@H]3COCC[C@H]3NC(=O)CNC2=O)CC1 [CBK292145],87.3023%
19,CS(=O)(=O)N(CC(=O)NCc1ccccn1)c1ccc(C23CC4CC(CC(C4)C2)C3)cc1 [CBK268448],114.21%
20,CCNC(=O)C1(NC(=O)c2cn3ccccc3n2)CCCCC1 [CBK305240],90.4558%
21,CN1C(=O)c2ccccc2C(=O)[C@@]2(C)CN(Cc3ccccc3)C[C@@H]12 [CBK284692],123.688%
22,COc1ccc(OCCCN2C(=O)C3(CC(=O)N(Cc4ccccc4)C3=O)c3cc(OC)ccc32)cc1 (centres unmarked) [CBK075523],110.687%
23,CCOc1cc(/C=N/NC(=O)CSc2nc(C)cc(C)n2)ccc1O [CBK262405],116.815%
24,CC(C)NC(=O)N1CC[C@H](c2nc3ncccc3[nH]2)C1 [CBK289369],129.151%
25,CC(C)(C)OC(=O)N1CCC(N(CCCO)Cc2ccccn2)CC1 [CBK304246],102.338%
26,CN(CC(N)=O)C(=O)CCn1c(=O)oc2cc(Cl)ccc21 [CBK305757],165.881%

row,Structure (SMILES),% of control remaining
1,Oc1cccc2c1OCO2 [CBK000070],120.455%
2,O=C(NC[C@H]1O[C@@H](CC(=O)N2CCCC2)[C@H](O)[C@@H]1O)c1ccc(F)c(Cl)c1 [CBK288913],113.669%
3,O=C(CCc1cccnc1)Nc1ccc(Oc2ccccc2)cc1 [CBK295168],134.315%
4,CCNC(=O)CN1CCN(c2ccc(C#N)cc2C(F)(F)F)CC1 [CBK306112],129.69%
5,COc1cccc(/C=N\NC(=O)CN2CCN(Cc3ccccc3)CC2)c1O [CBK263106],94.4122%
6,NNc1nccc(Nc2ccccc2C(=O)O)n1 [CBK263145],85.7861%
7,COC(=O)c1cccc2c1CCCN2Cc1nnc(C2CC2)o1 [CBK304868],118.722%
8,O=c1[nH]c(=O)c2cc(S(=O)(=O)Nc3cccc(CCc4ccncc4)c3)ccc2[nH]1 [CBK286397],126.313%
9,Cc1nnc(SCC(=O)NC2CC3CCC2C3)[nH]1 (centres unmarked) [CBK270239],140.392%
10,O=C1CCN(Cc2ccccc2)CCN1C(=O)C1CCCC1 [CBK284829],141.064%
11,O=[N+]([O-])c1ccc(N2CCN(S(=O)(=O)N3CCCC3)CC2)c(Cl)c1 [CBK264772],118.604%
12,c1ccc(COc2ccc3[nH]c4c(c3c2)CCNC42CCN(Cc3ccccc3-c3ccccc3)C2)cc1 (centres unmarked) [CBK039909],100.604%
13,O=C(O)c1ccc(Sc2ccc(S(=O)(=O)c3ccc(C(=O)O)c(C(=O)O)c3)cc2)cc1 [CBK261253],101.23%
14,CCc1nn(CC(=O)N(CC)CC)c(=O)c2cc3ccsc3n12 [CBK284132],92.9667%
15,CCC(CO)Nc1nccnc1-c1ccoc1 (centres unmarked) [CBK088756],189.36%
16,CCOC(=O)c1sc(NC(=O)C2CCCO2)c(C(N)=O)c1C (centres unmarked) [CBK058830],159.745%
17,CCN(CCC(C)c1ccccc1)CCN(C)C (centres unmarked) [CBK261914],100%
18,Fc1ccc(-c2nccnc2NCc2ccncc2)cc1Cl [CBK037422],123.378%
19,Cc1cc(COc2nc3ccccc3nc2NCCC2=CCCCC2)no1 [CBK173982],118.919%
20,Cc1ccc(Br)cc1S(=O)(=O)N1CCN(C(c2ccccc2)c2ccccc2)CC1 [CBK263433],125.633%
21,Sc1nnc(COc2ccccc2)n1/N=C/c1ccccn1 [CBK265279],105.352%
22,COC[C@@H]1OC[C@@]2(C)C3CC[C@@H](O)[C@@H](CC(=O)NCc4ccccc4)[C@]3(C)CC[C@H]2O1 (some centres unmarked) [CBK289574],133.509%
23,CC(C)(C)C1=CC2=NC3(CCC3)C3C[C@](O)(COCc4ccccc4)[C@@H](O)[C@@H]3N2O1 (some centres unmarked) [CBK303259],129.929%
24,Cc1cc(C)n(CCCNC(=O)N2CCC(c3nccs3)CC2)n1 [CBK304088],152.867%
25,COc1ccc(-c2nc(Nc3cccc(C(F)(F)F)c3)sc2CC(=O)O)cc1OC [CBK131693],93.2396%
26,O=c1[nH]c(=O)c2cc(S(=O)(=O)Nc3ccc(Cn4ccnc4)cc3)ccc2[nH]1 [CBK286383],108.598%

row,Structure (SMILES),% of control remaining
1,COc1ncc(-c2nccnc2NCc2cccnc2)c(OC)n1 [CBK036817],139.64%
2,O=C(CSCc1ccc(Cl)c(Cl)c1)Nc1cccnc1 [CBK268542],105.326%
3,Cn1ncc2c(NCCCN3CCCC(CO)C3)nc(C(C)(C)C)nc21 (centres unmarked) [CBK307082],152.705%
4,NS(=O)(=O)c1ccc(NC(=O)CCC2COc3ccccc3O2)cc1 (centres unmarked) [CBK267696],104.961%
5,CCCN1CCC(CNC(=O)c2cc(C3CC3)nn2C)CC1 [CBK282536],123.567%
6,COc1ccc([C@@]23CCC(NC(=S)NCc4ccccc4)C[C@@H]2N(Cc2ccccc2)CC3)cc1 (some centres unmarked) [CBK028140],173.856%
7,Cc1cccc(-c2ccc(CC3(C(N)=O)CCN(C(=O)Cc4ccccc4)CC3)cc2)c1 [CBK285780],118.45%
8,O=C(c1ccccc1F)N1C2CCC1CC(O)(c1cccnc1F)C2 (centres unmarked) [CBK284420],111.312%
9,C=C(C)CNC(=O)c1ccc(C)nc1N1CCOCC1 [CBK076389],100.117%
10,COCC(C)NS(=O)(=O)c1cc(Cl)ccc1OC (centres unmarked) [CBK270203],129.532%
11,CCN(CC)c1c(C)nc2ccc(C(=O)NCc3ccc(N(C)C)cc3)cn12 [CBK145961],182.021%
12,COc1ccc(C(=O)C2CCCCC23NCCN3)cc1 (centres unmarked) [CBK023140],112.15%
13,COc1ccc(-c2ccc(SCC(=O)Nc3cc(C)on3)nn2)cc1 [CBK287634],122.471%
14,COc1ccnc(N2CCN(C(=O)c3cc(C(C)=O)cn3C)CC2)n1 [CBK306272],140.605%
15,CC(C)C[C@H]([C@@H]1C[C@@H](C(C)C)C(=O)O1)N1C(=O)c2ccccc2C1=O [CBK011526],104.018%
16,CCOC(=O)CNC1CCCCC1 [CBK023276C],120.418%
17,CCc1nc2ccc(C(=O)N(C)CCN(C)C)cn2c1N(CC)Cc1cccc(Br)c1 [CBK146962],106.715%
18,Cc1c(C)n(O)[n+]([O-])c1-c1ccccc1 [CBK264510N],81.5813%
19,CC(C)(O)C#Cc1ccc(C(=O)N2CCC(C(N)=O)(N3CCCCC3)CC2)cc1 [CBK264065],124.129%
20,COC(=O)Cn1c(CN2CCN(c3ccccc3F)CC2)nc2c1c(=O)n(C)c(=O)n2C [CBK269444],135.308%
21,O=C(O)C[C@H](CNC(=O)COc1ccc2ccc(=O)oc2c1)c1ccc(Cl)cc1 [CBK286702],103.116%
22,Oc1ccc(/C=N/n2c(S)nnc2C(F)(F)F)cc1 [CBK265206],101.024%
23,Cc1cccnc1NC(=O)c1ccc(N2CCN(C)CC2)c([N+](=O)[O-])c1 [CBK269366],149.055%
24,CC(C)C(=O)Nc1c(-c2ccsc2)cnc2ncccc12 [CBK083714],124.97%
25,CC1=CCCN(C(=O)C23CCOCC2CN(c2ncc(F)cn2)C3)C1 (centres unmarked) [CBK304263],103.562%

# A portion of the results above, for reference:
row,Structure (SMILES),% of control remaining
3,Cn1ncc2c(NCCCN3CCCC(CO)C3)nc(C(C)(C)C)nc21 (centres unmarked) [CBK307082],152.705%
4,NS(=O)(=O)c1ccc(NC(=O)CCC2COc3ccccc3O2)cc1 (centres unmarked) [CBK267696],104.961%
5,CCCN1CCC(CNC(=O)c2cc(C3CC3)nn2C)CC1 [CBK282536],123.567%
6,COc1ccc([C@@]23CCC(NC(=S)NCc4ccccc4)C[C@@H]2N(Cc2ccccc2)CC3)cc1 (some centres unmarked) [CBK028140],173.856%
7,Cc1cccc(-c2ccc(CC3(C(N)=O)CCN(C(=O)Cc4ccccc4)CC3)cc2)c1 [CBK285780],118.45%
8,O=C(c1ccccc1F)N1C2CCC1CC(O)(c1cccnc1F)C2 (centres unmarked) [CBK284420],111.312%
9,C=C(C)CNC(=O)c1ccc(C)nc1N1CCOCC1 [CBK076389],100.117%
10,COCC(C)NS(=O)(=O)c1cc(Cl)ccc1OC (centres unmarked) [CBK270203],129.532%
11,CCN(CC)c1c(C)nc2ccc(C(=O)NCc3ccc(N(C)C)cc3)cn12 [CBK145961],182.021%
12,COc1ccc(C(=O)C2CCCCC23NCCN3)cc1 (centres unmarked) [CBK023140],112.15%
13,COc1ccc(-c2ccc(SCC(=O)Nc3cc(C)on3)nn2)cc1 [CBK287634],122.471%
14,COc1ccnc(N2CCN(C(=O)c3cc(C(C)=O)cn3C)CC2)n1 [CBK306272],140.605%
15,CC(C)C[C@H]([C@@H]1C[C@@H](C(C)C)C(=O)O1)N1C(=O)c2ccccc2C1=O [CBK011526],104.018%
16,CCOC(=O)CNC1CCCCC1 [CBK023276C],120.418%
17,CCc1nc2ccc(C(=O)N(C)CCN(C)C)cn2c1N(CC)Cc1cccc(Br)c1 [CBK146962],106.715%
18,Cc1c(C)n(O)[n+]([O-])c1-c1ccccc1 [CBK264510N],81.5813%
19,CC(C)(O)C#Cc1ccc(C(=O)N2CCC(C(N)=O)(N3CCCCC3)CC2)cc1 [CBK264065],124.129%
20,COC(=O)Cn1c(CN2CCN(c3ccccc3F)CC2)nc2c1c(=O)n(C)c(=O)n2C [CBK269444],135.308%
21,O=C(O)C[C@H](CNC(=O)COc1ccc2ccc(=O)oc2c1)c1ccc(Cl)cc1 [CBK286702],103.116%
22,Oc1ccc(/C=N/n2c(S)nnc2C(F)(F)F)cc1 [CBK265206],101.024%
23,Cc1cccnc1NC(=O)c1ccc(N2CCN(C)CC2)c([N+](=O)[O-])c1 [CBK269366],149.055%
24,CC(C)C(=O)Nc1c(-c2ccsc2)cnc2ncccc12 [CBK083714],124.97%
25,CC1=CCCN(C(=O)C23CCOCC2CN(c2ncc(F)cn2)C3)C1 (centres unmarked) [CBK304263],103.562%
